# In PubChem BioAssay AID2685 (National Center for Advancing Translational Sciences (NCATS), 2010):
# In all, about 320,000 compounds went through this assay and about 2,100 (0.66%) were called active. Inconclusive results, whose numbers are uncertain, are shown with a selection of clear calls. Calls follow the shape of the dose curve; as a rule, active = well fitted inhibition curve with a large enough effect in the signal ratio, with a control signal flat (not every such curve was filed as active); inconclusive = small, poorly fitted or top-dose-only effect, or effect the other way, or a change in a side signal; inactive = flat fitted curve, though single readings scatter; the % refers to the signal ratio. Potencies of inconclusive entries are doubtful fits and often do not repeat.
# Test: qHTS Assay for Lipid Storage Modulators in Drosophila S3 Cells
# Settings: BODIPY lipid droplet fluorescence, 18-24 h, cells fed with added oleic acid; lipid storage change, negative = inhibition: at 46.1 µM (top of the series) unless noted
# Procedure, shortened: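 Laser-scanning cytometry quantifies lipid droplet accumulation (500–530 nm total intensity; droplet/cell object ratio) in oleic acid-fed (400 uM added) Drosophila S3 cells treated with a concentration series. 20 uM Triacsin C defined 100% inhibition.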
# % is scaled to controls: 0 for no effect and ±100 for the full control effect; potency is read from the fitted curve at half-maximal effect.
Compound,Potency,"lipid storage change, negative = inhibition"
Cc1ccc2[nH]c3c(c2c1)CN(C(=O)CN1CCN(c2ccccc2)CC1)CC3,"inconclusive: 4.61 µM [activator, partial curve]",
O=C(CSc1ncccn1)NCc1ccc(F)cc1,,inconclusive: -1.71%
CC(C)C(=O)Nc1nnc(S(=O)(=O)N(C)c2ccc(Cl)cc2)s1,,inconclusive: -7.7%
CC(C)CC(=O)N1CCN(S(C)(=O)=O)CC1,,inconclusive: 1.35%
N#Cc1c(N)nc2c(c1-c1ccc3c(c1)OCO3)CCc1ccccc1-2,"inconclusive: 5.8 µM [activator, partial curve]",
CCOc1ccc(-c2[nH]nc3c2C(c2cccnc2)C(C#N)=C(N)O3)cc1 (stereo unspecified),"inconclusive: 0.0052 µM [activator, full curve, poor fit]",
O=[N+]([O-])c1ccccc1CN1CCN(c2ncccn2)CC1,"inconclusive: 20.6 µM [activator, single point]",
COCCNC(=O)Cn1nc(C(F)(F)F)cc1C,"inconclusive: 1.46 µM [falling, full curve]",
Brc1ccc(CN2CCN(c3ccccc3)CC2)o1,,inconclusive: 41.4%
Cc1nn(Cc2ccccc2Cl)c(Cl)c1/C=C/C(=O)OCC(=O)NC1CCS(=O)(=O)C1 (stereo unspecified),,inconclusive: 7.49%
CCN(CC)S(=O)(=O)c1ccc(C)c(NC(=O)COC(=O)C=C(C)C)c1,"inconclusive: 29.1 µM [falling, single point]",
O=C(Cc1ccc(F)cc1)Nc1cccc(-c2ccc3nncn3n2)c1,,inconclusive: 4.58%
NC(=O)CSc1nnc(-c2ccccc2Br)n1-c1cccc(C(F)(F)F)c1,,inconclusive: 58%
COc1ccc(N2CC(NC(=O)N3CCN(C(=O)c4ccco4)CC3)CC2=O)cc1OC (stereo unspecified),,inconclusive: -7.94%
Cc1cc(N2CCOCC2)cc(C)[n+]1[O-],,inconclusive: 0.885%
C#CCN1C(=O)C2C(C(=O)NC)C3C=CC2(O3)C1C(=O)NCc1ccc(OC)cc1 (stereo unspecified),"inconclusive: 5.8 µM [falling, partial curve]",
CC1(C)C2CCC(C2)C1(C)NC(=O)CN1CCOCC1 (stereo unspecified),"inconclusive: 5.8 µM [falling, full curve, poor fit]",
Nc1ccc(-c2nnnn2-c2ccc(N)cc2)cc1,"inconclusive: 0.731 µM [activator, full curve, poor fit]",
CS(=O)(=O)Nc1ccc(C(=O)Nc2ccc(S(=O)(=O)Nc3nccs3)cc2)cc1,"inconclusive: 20.6 µM [activator, single point]",
O=C(Nc1nnc(CC2=CCCCC2)s1)c1cccs1,"inconclusive: 29.1 µM [activator, single point]",
O=C(O)/C=C/C(=O)NNC(=O)c1ccc(Cl)cc1Cl,,inconclusive: -31.4%
CC(C)N(CCCNC(=O)CC1Oc2ccccc2NC1=O)Cc1ccccc1 (stereo unspecified),,inconclusive: 11.3%
O=C(NCCN1CCN(S(=O)(=O)c2ccc([N+](=O)[O-])cc2)CC1)C(=O)Nc1ccccc1,,inconclusive: -32.1%

# Quoted from the listing:
# CC(C)N(CCCNC(=O)CC1Oc2ccccc2NC1=O)Cc1ccccc1 (stereo unspecified) – lipid storage change, negative = inhibition: inconclusive: 11.3%
# COCCNC(=O)Cn1nc(C(F)(F)F)cc1C – Potency: inconclusive: 1.46 µM [falling, full curve]

# (more compounds)

Compound,Potency,"lipid storage change, negative = inhibition"
COCCN(C(=O)CSc1nc2ccc(OC)cc2[nH]1)c1c(N)n(Cc2ccccc2)c(=O)[nH]c1=O,,inconclusive: 2.05%
CCCCN(Cc1cc2cc(OC)ccc2[nH]c1=O)C(=O)c1ccccn1,"inconclusive: 1.46 µM [activator, partial curve]",
NS(=O)(=O)c1ccc(NC(=O)c2ccc(CNS(=O)(=O)c3cc(C(F)(F)F)ccc3Cl)cc2)cc1,"inconclusive: 7.31 µM [cytotoxic, partial curve]",
CCOc1cc(NC(=S)NCCCN2CCOCC2)c(OCC)cc1NC(=O)c1ccc(OC)cc1,,inconclusive: 4.82%
Cc1cc(C)n2nc(C(=O)Nc3ccc(S(=O)(=O)N(C)C)cc3)nc2n1,,inactive
CN(CC(=O)Nc1cccc(F)c1)C(=O)CCCc1c[nH]c2ccccc12,,inconclusive: 16.8%
CCCNC(=O)COc1coc(CN2CCN(c3ccccc3)CC2)cc1=O,,inconclusive: -58.2%
CCc1ccc2nc(N(CCN(C)C)C(=O)/C=C/c3cccs3)sc2c1,"inconclusive: 4.11 µM [activator, partial curve]",
O=S(=O)(CCOc1ccccc1)c1nc2ccccc2[nH]1,"inconclusive: 0.731 µM [falling, single point]",
O=C(CN1CCN(c2ccccc2O)CC1)NNC(=O)c1ccc(Cl)cc1,,inconclusive: 14.5%
CC(C)Cc1ccc(CN2CCCC(NC(=O)CCN3CCOCC3)C2)cc1 (stereo unspecified),,inconclusive: -48.3%
O=C(NCCCNc1ccc(C(F)(F)F)cc1[N+](=O)[O-])c1ccc(F)cc1,,inconclusive: 12.2%
Cc1ccc(/C=N/N2CCN(c3ccccn3)CC2)cc1,,inconclusive: 1.77%
COc1cccc(OCc2cc(C(=O)N3CCN(C)C(c4ccccc4)C3)no2)c1 (stereo unspecified),,inconclusive: -37.5%
O=C(COc1ccc(Br)cc1Cl)N1CCN(c2ncccn2)CC1,"inconclusive: 6.51 µM [activator, partial curve, poor fit]",
COc1ccc([C@@H]2[C@H]3C(=O)N(c4cccc(C(F)(F)F)c4)C(=O)[C@H]3ON2C)cc1,,inconclusive: -30.1%
Cc1oc2c(c1C(=O)NC(Cc1c[nH]c3ccccc13)C(=O)O)CCCC2 (stereo unspecified),,inactive
COc1ccc(Nc2ncc3c(n2)CC(c2ccccc2)CC3=O)cc1 (stereo unspecified),,inconclusive: 27.3%
CCNC(=O)N1c2ccc(OCC)cc2C(C)=CC1(C)C,"inconclusive: 25.9 µM [falling, partial curve, poor fit]",
COc1cccc(-c2cc(C(=O)NCCc3ccccc3)no2)c1,,inconclusive: 3.3%
Cc1cc2[nH]c(=O)c(=O)[nH]c2cc1S(=O)(=O)N(C)C1CCCCC1,"inconclusive: 23.1 µM [falling, partial curve, poor fit]",
O=C(Cn1ccc2cc(S(=O)(=O)N3CCCC3)ccc21)NCCc1ccccc1,,inconclusive: 255%
Cc1nn(CCC#N)c2nc(C(F)(F)F)[nH]c(=O)c12,"inconclusive: 3.26 µM [falling, partial curve]",
